According to PMC3387237:
Results are given in words; binding and its absence hold for the method and conditions named. Binding seen in cells or lysates may run through a third protein. A result given as binding can be weak or reduced; the word gives no strength.

Sequences of proteins named here, by UniProt entry; tags and fusion partners are left off. A change or cut given only in a name is not applied to a line headed by its entry.
UniProt P28063: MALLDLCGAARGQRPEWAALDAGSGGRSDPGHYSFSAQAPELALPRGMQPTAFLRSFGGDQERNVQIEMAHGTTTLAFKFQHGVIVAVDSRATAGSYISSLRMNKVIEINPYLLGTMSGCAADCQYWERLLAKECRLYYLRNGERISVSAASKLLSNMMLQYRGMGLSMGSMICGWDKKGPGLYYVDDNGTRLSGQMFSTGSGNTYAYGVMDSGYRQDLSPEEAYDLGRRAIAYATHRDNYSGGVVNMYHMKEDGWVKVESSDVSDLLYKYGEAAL
UniProt O55234: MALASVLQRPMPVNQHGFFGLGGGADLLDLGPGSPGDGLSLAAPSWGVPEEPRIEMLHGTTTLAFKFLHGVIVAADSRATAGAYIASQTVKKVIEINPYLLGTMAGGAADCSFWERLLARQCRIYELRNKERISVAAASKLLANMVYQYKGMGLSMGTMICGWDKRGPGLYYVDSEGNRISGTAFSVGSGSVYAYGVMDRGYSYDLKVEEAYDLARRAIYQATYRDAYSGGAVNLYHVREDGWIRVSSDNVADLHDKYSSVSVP

Experiments:
[1] = target: Flag-tagged full-length LMP7 (mouse) (UniProt P28063); assay: co-IP; lysates (600 µg protein) of retrovirally transduced lmp7−/− Mefs, unstimulated or IFNγ for 4 days; anti-Flag M2 affinity gel, 4°C over night; 50 mM TrisHCl pH 7.4, 150 mM NaCl, 1 mM EDTA, 0.5% Igepal; washed with TBS; input, supernatant and precipitate read by two-colour fluorescent immunoblot
[2] = target: Flag-tagged full-length β5 (mouse) (UniProt O55234); assay: co-IP; β5-Flag over-expressed in wild type Mefs (endogenous LMP7 present), IFNγ stimulation; anti-Flag precipitation, immunoblot (Fig. S1B)
[3] = target: Flag-tagged full-length β5 (mouse) (UniProt O55234); assay: co-IP; lysates (600 µg protein) of retrovirally transduced lmp7−/− Mefs, unstimulated or IFNγ for 4 days; anti-Flag M2 affinity gel, 4°C over night; 50 mM TrisHCl pH 7.4, 150 mM NaCl, 1 mM EDTA, 0.5% Igepal; washed with TBS; input, supernatant and precipitate read by two-colour fluorescent immunoblot

| binding [1] | binding [2] | binding [3] | Binder |
| --- | --- | --- | --- |
| binds | – | – | MECL-1 (protein, UniProt O35955 40-273) TTIAGLVFRDGVILGADTRATNDSVVADKSCEKIHFIAPKIYCCGAGVAADTEMTTRMAASKMELHALSTGREPRVATVTRILRQTLFRYQGHVGASLVVGGVDLNGPQLYEVHPHGSYSRLPFTALGSGQGAAVALLEDRFQPNMTLEAAQELLVEAITAGILSDLGSGGNVDACVITAGGAKLQRALSTPTEPVQRAGRYRFAPGTTPVLTREVRPLTLELLEETVQAMEVE |
| – | binds | binds | proteasome subunit β2 (protein, UniProt P70195 44-277) TTIAGVVYKDGIVLGADTRATEGMVVADKNCSKIHFISPNIYCCGAGTAADTDMTTQLISSNLELHSLTTGRLPRVVTANRMLKQMLFRYQGYIGAALVLGGVDVTGPHLYSIYPHGSTDKLPYVTMGSGSLAAMAVFEDKFRPDMEEEEAKKLVSEAIAAGIFNDLGSGSNIDLCVISKSKLDFLRPFSVPNKKGTRLGRYRCEKGTTAVLTEKVTPLEIEVLEETVQTMDTS |
| binds | – | – | LMP2 (protein, UniProt P28076 21-219) TTIMAVEFDGGVVVGSDSRVSAGTAVVNRVFDKLSPLHQRIFCALSGSAADAQAIADMAAYQLELHGLELEEPPLVLAAANVVKNISYKYREDLLAHLIVAGWDQREGGQVYGTMGGMLIRQPFTIGGSGSSYIYGYVDAAYKPGMTPEECRRFTTNAITLAMNRDGSSGGVIYLVTITAAGVDHRVILGDELPKFYDE |
